Consider one molecule from article PMC9411099.

The chains behind the UniProt entries cited, without tags or fusion partners.
UniProt Q9JKF1: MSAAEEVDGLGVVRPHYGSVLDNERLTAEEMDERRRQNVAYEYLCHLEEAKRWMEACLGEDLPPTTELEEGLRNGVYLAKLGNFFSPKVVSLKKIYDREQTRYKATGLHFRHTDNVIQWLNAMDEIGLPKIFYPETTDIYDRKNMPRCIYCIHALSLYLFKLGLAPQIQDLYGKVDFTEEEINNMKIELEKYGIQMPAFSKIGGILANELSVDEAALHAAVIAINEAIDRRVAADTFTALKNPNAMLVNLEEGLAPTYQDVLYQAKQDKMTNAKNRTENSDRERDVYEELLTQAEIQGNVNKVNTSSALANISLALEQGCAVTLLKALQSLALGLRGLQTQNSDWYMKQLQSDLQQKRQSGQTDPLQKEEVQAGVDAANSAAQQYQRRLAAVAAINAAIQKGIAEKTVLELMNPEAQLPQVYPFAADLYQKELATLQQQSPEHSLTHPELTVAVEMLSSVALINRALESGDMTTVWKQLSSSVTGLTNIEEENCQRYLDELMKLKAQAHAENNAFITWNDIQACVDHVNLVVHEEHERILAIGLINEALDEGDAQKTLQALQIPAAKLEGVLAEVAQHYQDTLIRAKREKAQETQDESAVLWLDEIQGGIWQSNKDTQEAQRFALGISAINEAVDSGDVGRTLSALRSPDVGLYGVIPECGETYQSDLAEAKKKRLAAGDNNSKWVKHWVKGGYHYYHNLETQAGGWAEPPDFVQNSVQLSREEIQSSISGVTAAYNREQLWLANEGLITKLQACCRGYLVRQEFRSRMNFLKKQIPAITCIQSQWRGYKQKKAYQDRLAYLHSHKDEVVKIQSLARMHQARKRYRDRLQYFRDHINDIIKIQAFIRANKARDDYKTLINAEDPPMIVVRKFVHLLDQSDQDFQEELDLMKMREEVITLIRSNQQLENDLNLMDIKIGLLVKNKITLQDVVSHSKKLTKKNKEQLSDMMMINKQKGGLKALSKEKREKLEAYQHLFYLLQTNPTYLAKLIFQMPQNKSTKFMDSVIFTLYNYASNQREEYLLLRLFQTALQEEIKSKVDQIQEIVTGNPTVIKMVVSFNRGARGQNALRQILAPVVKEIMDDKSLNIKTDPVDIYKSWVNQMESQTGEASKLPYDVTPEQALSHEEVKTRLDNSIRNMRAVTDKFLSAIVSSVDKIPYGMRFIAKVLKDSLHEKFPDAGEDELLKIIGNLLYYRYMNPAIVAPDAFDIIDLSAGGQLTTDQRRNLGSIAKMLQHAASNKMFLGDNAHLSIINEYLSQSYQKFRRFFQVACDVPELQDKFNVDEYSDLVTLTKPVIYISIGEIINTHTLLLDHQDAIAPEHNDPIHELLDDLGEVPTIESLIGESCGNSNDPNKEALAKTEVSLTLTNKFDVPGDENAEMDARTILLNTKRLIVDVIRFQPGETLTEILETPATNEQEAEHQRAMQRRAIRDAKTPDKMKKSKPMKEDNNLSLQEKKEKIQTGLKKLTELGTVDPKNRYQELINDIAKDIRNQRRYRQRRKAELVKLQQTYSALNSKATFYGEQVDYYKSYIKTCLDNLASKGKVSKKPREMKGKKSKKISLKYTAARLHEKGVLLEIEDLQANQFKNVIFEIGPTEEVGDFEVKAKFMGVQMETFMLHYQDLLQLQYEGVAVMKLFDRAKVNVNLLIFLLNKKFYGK

The target of the assay is IQ motif-containing GTPase activating protein 1 (IQGAP1) (mouse (endogenous in primary murine Sertoli cells)) (UniProt Q9JKF1). Description: co-IP; Protein G magnetic beads with anti-IQGAP1 or anti-PAFAH1B1 antibody; protein extracts of murine Sertoli cells added overnight at 4 °C; washed with 1x PBST; immunoblot; also in cells treated with Pafah1b1 siRNA or miR-181c/d mimics (complex reduced). On the technique in general: A western blot detects proteins with antibodies after separation by electrophoresis.

Results are given in words; binding and its absence hold for the method and conditions named. In cells and extracts the contact can be indirect. Some results given as binding are weak or reduced against the parent protein; the word gives no strength.

B1: Platelet-activating factor acetylhydrolase 1b regulatory subunit 1 (PAFAH1B1) (protein, UniProt P63005-1 1-410)
chain: MVLSQRQRDELNRAIADYLRSNGYEEAYSVFKKEAELDMNEELDKKYAGLLEKKWTSVIRLQKKVMELESKLNEAKEEFTSGGPLGQKRDPKEWIPRPPEKYALSGHRSPVTRVIFHPVFSVMVSASEDATIKVWDYETGDFERTLKGHTDSVQDISFDHSGKLLASCSADMTIKLWDFQGFECIRTMHGHDHNVSSVAIMPNGDHIVSASRDKTIKMWEVQTGYCVKTFTGHREWVRMVRPNQDGTLIASCSNDQTVRVWVVATKECKAELREHEHVVECISWAPESSYSSISEATGSETKKSGKPGPFLLSGSRDKTIKMWDVSTGMCLMTLVGHDNWVRGVLFHSGGKFILSCADDKTLRVWDYKNKRCMKTLNAHEHFVTSLDFHKTAPYVVTGSVDQTVKVWECR
As for B1, the binding entry is listed as “binds”.
